For the assay, the system named is L1210 leukemia ip in BDF1 mice, survival T/C. Put plainly: NCI In Vivo Anticancer Drug Screen. Data for tumor model L1210 Leukemia (intraperitoneal) in B6D2F1 (BDF1) mice. To be noted: T/C endpoint: mean survival time, higher T/C = longer survival.
Where [1] appears, read: dose: 400.0 mg/kg/injection, schedule: Q01DX009 (ip), vehicle: saline with Tween-80.
The mark [2] stands for this setting: dose: 100.0 mg/kg/injection, schedule: Q01DX009 (ip), vehicle: saline.
Where [3] appears, read: dose: 400.0 mg/kg/injection, schedule: Q01DX001 (ip), vehicle: saline.
Setting [4] is: dose: 200.0 mg/kg/injection, schedule: Q01DX001 (ip), vehicle: saline.
Where [5] appears, read: dose: 200.0 mg/kg/injection, schedule: Q01DX001 (ip), vehicle: carboxymethylcellulose (CMC).
[6] abbreviates: dose: 400.0 mg/kg/injection, schedule: Q01DX001 (ip), vehicle: carboxymethylcellulose (CMC).
Where [7] appears, read: dose: 400.0 mg/kg/injection, schedule: Q01DX009 (ip), vehicle: Klucel (hydroxypropylcellulose) (HPC).

SMILES strings stand for the structures. The list is a part of this screen's results and no random one: it gathers tests that were run many times, whatever their T/C, doses with no T/C, and many T/C values between a quarter and a half above the control. Further doses and runs are listed elsewhere. T/C: endpoint of the treated group in % of that of the vehicle group. Some doses have a count of surviving animals in place of a T/C: the source files T/C as zero there, which appears to mark a toxic dose or a test without result, not a measured value. Some doses without a T/C left all or most animals alive at the check, yet need not have been tolerated: survival well below the control is almost never listed, so the zero probably covers shortened survival too. Survivors were counted at the toxicity check, usually on the fifth day, unless a day is given; later deaths do not show. Schedule codes are those of the source, taken here to give the interval after Q, in days (D) or hours (H), and the number of doses after X. Marks such as (2×) say how often a value occurs here. Some schedules carry Z or #; the key to these is not given. Some structures stand for samples that the source files as different forms (salt, stereo form or complex); doses refer to the form tested. Some entries were tested several times; the values are given in rising order. For survival time, the PubChem record calls one and a half times the control and up active, and a quarter to a half above the control has no call in these data; cut-offs in other NCI protocols can differ.

For the compound `CC(=O)c1ccc(OC(=O)Nc2ccccc2F)cc1`, the survivor count by setting is: (dose: 200.0 mg/kg/injection, schedule: Q01DX009 (ip), vehicle: saline with Tween-80) 0 of 6; under setting [1], 0 of 6.
Turning to `CSc1ncc2n1C=CN(C(=O)c1ccc([N+](=O)[O-])cc1)C2O` (stereo unspecified), the survivor count under setting [2] is given as 6 of 6.
For `CC(C)=Cc1ccccc1`, the survivor count under setting [1] is given as 4 of 6.
In the case of `C/C(=C\Cl)COC1CCCCO1` (stereo unspecified), the survivor count (dose: 400.0 mg/kg/injection, schedule: Q01DX009 (ip), vehicle: acetone) is listed as 3 of 6.
For `CC(C)CC(CC(C)C)NCCOC(=O)Cc1ccccc1`, the survivor count (dose: 300.0 mg/kg/injection, schedule: Q01DX001 (ip), vehicle: other) is 1 of 6.
Turning to `CCC[CH2][Pb]([CH2]CCC)([CH2]CCC)[n]1ccnc1`, the survivor count runs as follows: (dose: 6.0 mg/kg/injection, schedule: Q01DX009 (ip), vehicle: Klucel (hydroxypropylcellulose) (HPC)) 4 of 6; (dose: 12.5 mg/kg/injection, schedule: Q01DX009 (ip), vehicle: Klucel (hydroxypropylcellulose) (HPC)) 2 of 6; (dose: 25.0 mg/kg/injection, schedule: Q01DX009 (ip), vehicle: Klucel (hydroxypropylcellulose) (HPC)) 0 of 6; (dose: 50.0 mg/kg/injection, schedule: Q04DX003 (ip), vehicle: Klucel (hydroxypropylcellulose) (HPC)) 2 of 6; (dose: 100.0 mg/kg/injection, schedule: Q04DX003 (ip), vehicle: Klucel (hydroxypropylcellulose) (HPC)) 2 of 6; (dose: 200.0 mg/kg/injection, schedule: Q04DX003 (ip), vehicle: Klucel (hydroxypropylcellulose) (HPC)) 0 of 6. Besides, the survivor count under setting [3] is reported as 0 of 4.
Regarding `C=COC(=O)NC(C(=O)O)C(C)C` (stereo unspecified), the survivor count runs as follows: under setting [4], 2 of 6; under setting [3], 0 of 6.
As for `CCC[N+](C)(C)CC`, for the setting “dose: 150.0 mg/kg/injection, schedule: Q01DX001 (ip), vehicle: saline”, the survivor count is 2 of 6.
In the case of `NC(CSC(c1ccccc1)(c1ccccc1)c1ccc(F)cc1)C(=O)O` (stereo unspecified), the T/C was 128 % of control (dose: 12.5 mg/kg/injection, schedule: Q01DX009 (ip), vehicle: saline); 128 % of control (dose: 25.0 mg/kg/injection, schedule: Q01DX009 (ip), vehicle: other); 137 % of control (dose: 25.0 mg/kg/injection, schedule: Q01DX009 (ip), vehicle: saline); 144 % of control (dose: 50.0 mg/kg/injection, schedule: Q01DX009 (ip), vehicle: other). Also, the survivor count was 2 of 6 under setting [2] and 4 of 6 (dose: 200.0 mg/kg/injection, schedule: Q01DX009 (ip), vehicle: other).
Consider `O=C(Nc1ccc(C2=NCCN2)cc1)c1ccc(Br)c(C(=O)Nc2ccc(C3=NCCN3)cc2)c1`, for which the survivor count is, setting by setting: (dose: 40.0 mg/kg/injection, schedule: Q01DX Z (ip), vehicle: water) 0 of 6; (dose: 60.0 mg/kg/injection, schedule: Q01DX Z (ip), vehicle: saline) 1 of 6; (dose: 120.0 mg/kg/injection, schedule: Q01DX Z (ip), vehicle: saline) 0 of 6.
As for `N#C/C=C/C1CCCCC1`, the survivor count reads like this: under setting [4], 2 of 6; under setting [3], 0 of 6.
Regarding `CCCCNC(=O)OCC`, the T/C under setting [5] was 127 % of control.
Take `CCC(C)(O)C#CC(C)(O)CC` (stereo unspecified): the survivor count (dose: 400.0 mg/kg/injection, schedule: Q01DX009 (ip), vehicle: saline) is 0 of 6.
Consider `N=C(N)SCCON1C(=O)c2ccccc2C1=O`, for which, under setting [3], the survivor count is recorded as 0 of 4.
As to `O=NN(CCCl)C(=O)NC1CCC(C(=O)O)CC1` (stereo unspecified), the T/C was 139 % of control (dose: 6.0 mg/kg/injection, schedule: Q01DX001 (ip), vehicle: saline with Tween-80); 134 % of control (dose: 8.7 mg/kg/injection, schedule: Q01DX001 (ip), vehicle: saline with Tween-80); 248 % of control (dose: 20.0 mg/kg/injection, schedule: Q01DX001 (ip), vehicle: saline with Tween-80, evaluated on day 5); 248 % of control (dose: 20.0 mg/kg/injection, schedule: Q01DX001 (ip), vehicle: saline with Tween-80, evaluated on day 30); 476 % of control (dose: 20.0 mg/kg/injection, schedule: Q01DX001 (ip), vehicle: saline with Tween-80, evaluated on day 45); 248 % of control (dose: 20.0 mg/kg/injection, schedule: Q01DX001 (ip), vehicle: saline with Tween-80, evaluated on day 60). The T/C by setting is: (dose: 30.0 mg/kg/injection, schedule: Q01DX001 (ip), vehicle: saline with Tween-80, evaluated on day 5) 481 % of control; (dose: 30.0 mg/kg/injection, schedule: Q01DX001 (ip), vehicle: saline with Tween-80, evaluated on day 30) 269 % of control; (dose: 30.0 mg/kg/injection, schedule: Q01DX001 (ip), vehicle: saline with Tween-80, evaluated on day 45) 468 % of control; (dose: 30.0 mg/kg/injection, schedule: Q01DX001 (ip), vehicle: saline with Tween-80, evaluated on day 60) 481 % of control. In addition, the survivor count is, setting by setting: (dose: 30.0 mg/kg/injection, schedule: Q01DX001 (ip), vehicle: saline with Tween-80) 10 of 10; (dose: 139.0 mg/kg/injection, schedule: Q01DX001 (ip), vehicle: saline with Tween-80) 9 of 9; (dose: 208.0 mg/kg/injection, schedule: Q01DX001 (ip), vehicle: saline with Tween-80) 9 of 10 (2×).
`O=Nc1ccc(O)c2ncccc12`: for the setting “dose: 400.0 mg/kg/injection, schedule: Q04DX003 (ip), vehicle: Klucel (hydroxypropylcellulose) (HPC)”, the survivor count is recorded as 0 of 6.
In the case of `CCC(CCl)NC(CC(C)C)CC(C)C` (stereo unspecified), the survivor count (dose: 300.0 mg/kg/injection, schedule: Q01DX001 (ip), vehicle: saline) is 0 of 6 and 2 of 6.
With `CNC(=O)Oc1cccc2c1C(=O)OC2=O`, the survivor count (dose: 400.0 mg/kg/injection, schedule: Q01DX001 (ip), vehicle: other) is given as 1 of 6.
Take `CCCCCCCC(C)NCCO` (stereo unspecified): the survivor count reads like this: (dose: 150.0 mg/kg/injection, schedule: Q01DX001 (ip), vehicle: carboxymethylcellulose (CMC)) 3 of 6; (dose: 300.0 mg/kg/injection, schedule: Q01DX001 (ip), vehicle: carboxymethylcellulose (CMC)) 0 of 6.
As for `CN(C)c1ccc(/C=N\NC(=S)Nc2ccc3cn[nH]c3c2)cc1`, the survivor count under setting [6] is reported as 0 of 4.
For `NNc1c(F)c(N)c(F)c(F)c1F`, the survivor count (dose: 25.6 mg/kg/injection, schedule: Q04DX002 (ip), vehicle: saline with Tween-80) is 3 of 3; the survivor count (dose: 64.0 mg/kg/injection, schedule: Q04DX002 (ip), vehicle: saline with Tween-80) is 0 of 3; the survivor count (dose: 160.0 mg/kg/injection, schedule: Q04DX002 (ip), vehicle: saline with Tween-80) is listed as 0 of 3; the survivor count (dose: 400.0 mg/kg/injection, schedule: Q04DX002 (ip), vehicle: saline with Tween-80) is reported as 0 of 3.
Consider `O=C(Cl)OCCOCCOC(=O)Cl`, for which, under setting [2], the survivor count is recorded as 0 of 6.
In the case of `O=C(/C=C/c1ccccc1)CCN1CCC2CCC(C2)C1` (stereo unspecified), the survivor count reads like this: under setting [5], 0 of 4; under setting [6], 0 of 4.
Take `CCO/C=C1\SC(=S)N(c2cccc(O)c2)C1=O`: the survivor count was 6 of 6 (dose: 100.0 mg/kg/injection, schedule: Q01DX009 (ip), vehicle: Klucel (hydroxypropylcellulose) (HPC)); 1 of 6 (dose: 200.0 mg/kg/injection, schedule: Q01DX009 (ip), vehicle: Klucel (hydroxypropylcellulose) (HPC)); 0 of 6 under setting [7].
Take `CCN(CC)CCCNc1c2ccccc2nc2ccccc12`: for the setting “dose: 80.0 mg/kg/injection, schedule: Q01DX001 (ip), vehicle: saline”, the survivor count was 4 of 4.
Take `OCCNc1nc2cc(Cl)ccc2c2ccc(Cl)cc12`: under setting [7], the survivor count is on record as 4 of 6.

The record behind these values is PubChem BioAssay AID248 (DTP/NCI, 2004).
